Reference: the supplement of paper PMC4840960
The list shows a part of the results. Part of the spread comes from offsets between plates or batches.

Tested on: E18 rat cortical neuron-glia co-culture
Test: total nuclei (DAPI) / Olig2+ nuclei (ratio); higher = more depletion of OPC/OL lineage cells
Conditions: treatment time: 8 days (DIV5-DIV13)

SMILES | total nuclei (1 µM) | total nuclei (5 µM)
CC(=O)NCCCCCCNC(C)=O [Hexamethylene bisacetamide] | 3.14 | 3.4
COC(=O)C1=C(C)NC(C)=C(C(=O)OCCN(C)Cc2ccccc2)C1c1cccc([N+](=O)[O-])c1 (stereo unspecified) [Nicardipine] | 3.02 | 5.6
Clc1ccc2nsnc2c1NC1=NCCN1 [Tizanidine] | 3.24 | 2.9
CN1CCN(CCCN2c3ccccc3Sc3ccc(C(F)(F)F)cc32)CC1 [Trifluoperazine] | 4.72 | > 40
O=C1Nc2ccccc2/C1=C1/Nc2ccccc2C1=O [Indirubin] | 2.61 | 2.7
CC1(C)S[C@@H]2[C@H](NC(=O)[C@H](N)c3ccc(O)cc3)C(=O)N2[C@H]1C(=O)O [Amoxicillin] | 2.88 | 2.9
O=C(NCC1CCCCN1)c1cc(OCC(F)(F)F)ccc1OCC(F)(F)F (stereo unspecified) [Flecainide] | > 40 | 2.8
CCc1cc(C(N)=S)ccn1 [Ethionamide] | 3.93 | 4
CCOc1cc(CC(=O)N[C@@H](CC(C)C)c2ccccc2N2CCCCC2)ccc1C(=O)O [Repaglinide] | 2.8 | 3
CN(C)CCc1c[nH]c2ccc(Cn3cncn3)cc12 [Rizatriptan] | 2.77 | 2.7
COC(=O)Nc1nc2cc(C(=O)c3ccccc3)ccc2[nH]1 [Mebendazole] | 12.7 | 33.8
O=C(O)CCNC(=O)c1ccc(/N=N/c2ccc(O)c(C(=O)O)c2)cc1 [Balsalazide] | 2.74 | 2.9
CCN1CCN(c2cc3c(cc2F)c(=O)c(C(=O)O)cn3C2CC2)CC1 [Enrofloxacin] | 2.63 | 2.8

Looked up by structure from the entries so far, 2 records:
SMILES | total nuclei (1 µM) | total nuclei (5 µM)
O=C(O)CCNC(=O)c1ccc(/N=N/c2ccc(O)c(C(=O)O)c2)cc1 [Balsalazide] | 2.74 | 2.9
CCc1cc(C(N)=S)ccn1 [Ethionamide] | 3.93 | 4
